Measured values as given in the supplement of paper PMC6078165.
± gives the standard deviation of the averaged measurements. Values are relative to the signal before dosing, not to a vehicle control; the signal also falls without drug.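 Labels refer to human fibroblasts, largely primary: uterine (C12385, HUF), lung (H6013), bone (Hs27A), adrenal (HADF), skin (WS1), plus mammary HMF and breast cancer-associated Hs343T. Cancer lines are basal-like or mesenchymal-like triple-negative breast cancer. The paper counts as hits responses shifting over 3x the replicate standard deviation. The tissue of the other fibroblasts is not given here.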

System: MDAMB436
Assay: relative JC-1 red fluorescence (viability) vs pre-drug, coculture with fibroblast (fraction); higher = more viable cancer cells
Protocol: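 JC-1 labelled TNBC cells cocultured 1:1 (1,500 cells each) with CellTrace Violet stained primary or stromal fibroblasts in 384-well plates in FluoroBrite medium, treated with one of 42 anticancer drugs at 0.1, 1, 10 or 100 uM. JC-1 red fluorescence (mitochondrial integrity in cancer cells only) was read by plate reader every 8 h for 72 h. Values are normalised to each well's pre-drug value. The stock of one drug was tenfold lower, so its dose labels may be too high.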

C[C@]12CC[C@@H]3c4ccc(O)cc4C[C@@H](CCCCCCCCC[S+]([O-])CCCC(F)(F)C(F)(F)F)[C@H]3[C@@H]1CC[C@@H]2O (stereo partly drawn) [Fulvestrant]
relative JC-1 red fluorescence
Settings | 8 h | 16 h | 24 h | 32 h | 40 h | 48 h | 56 h | 64 h | 72 h
0.1 µM, coculture fibroblast: C12385 | 0.81 ± 0.025 | 0.711 ± 0.022 | 0.649 ± 0.034 | 0.574 ± 0.035 | 0.519 ± 0.04 | 0.487 ± 0.045 | 0.467 ± 0.047 | 0.447 ± 0.051 | 0.439 ± 0.046
0.1 µM, coculture fibroblast: H6013 | 0.807 ± 0.029 | 0.724 ± 0.042 | 0.693 ± 0.032 | 0.674 ± 0.031 | 0.655 ± 0.024 | 0.658 ± 0.013 | 0.631 ± 0.02 | 0.61 ± 0.021 | 0.565 ± 0.016
0.1 µM, coculture fibroblast: H6019 | 0.7474 ± 0.0054 | 0.621 ± 0.0085 | 0.5993 ± 0.0036 | 0.529 ± 0.0058 | 0.482 ± 0.0095 | 0.458 ± 0.014 | 0.423 ± 0.013 | 0.396 ± 0.019 | 0.372 ± 0.021
0.1 µM, coculture fibroblast: H6076 | 0.763 ± 0.034 | 0.657 ± 0.05 | 0.619 ± 0.034 | 0.575 ± 0.026 | 0.55 ± 0.024 | 0.519 ± 0.021 | 0.528 ± 0.0054 | 0.519 ± 0.014 | 0.5 ± 0.01
0.1 µM, coculture fibroblast: H6231 | 0.75 ± 0.018 | 0.65 ± 0.015 | 0.635 ± 0.0084 | 0.5816 ± 0.0049 | 0.56 ± 0.015 | 0.527 ± 0.018 | 0.511 ± 0.024 | 0.48 ± 0.02 | 0.454 ± 0.032
0.1 µM, coculture fibroblast: HADF | 0.8061 ± 0.0037 | 0.71707 ± 0.00066 | 0.677 ± 0.045 | 0.638 ± 0.08 | 0.601 ± 0.11 | 0.593 ± 0.13 | 0.548 ± 0.14 | 0.524 ± 0.14 | 0.484 ± 0.14
0.1 µM, coculture fibroblast: HCFa | 0.835 ± 0.026 | 0.744 ± 0.03 | 0.691 ± 0.031 | 0.647 ± 0.03 | 0.605 ± 0.026 | 0.599 ± 0.013 | 0.539 ± 0.011 | 0.51328 ± 0.00044 | 0.4542 ± 0.0024
0.1 µM, coculture fibroblast: HCPF | 0.7831 ± 0.0032 | 0.706 ± 0.013 | 0.673 ± 0.043 | 0.626 ± 0.044 | 0.599 ± 0.048 | 0.567 ± 0.053 | 0.535 ± 0.05 | 0.521 ± 0.048 | 0.496 ± 0.045
0.1 µM, coculture fibroblast: HHSteC | 0.854 ± 0.075 | 0.82 ± 0.12 | 0.775 ± 0.12 | 0.75 ± 0.14 | 0.73 ± 0.14 | 0.74 ± 0.14 | 0.672 ± 0.13 | 0.647 ± 0.13 | 0.581 ± 0.12
0.1 µM, coculture fibroblast: HMF | 0.84 ± 0.026 | 0.743 ± 0.053 | 0.684 ± 0.078 | 0.646 ± 0.097 | 0.615 ± 0.11 | 0.586 ± 0.12 | 0.567 ± 0.12 | 0.541 ± 0.12 | 0.523 ± 0.12
0.1 µM, coculture fibroblast: HPFa | 0.846 ± 0.012 | 0.773 ± 0.015 | 0.721 ± 0.0092 | 0.664 ± 0.0099 | 0.639 ± 0.017 | 0.63 ± 0.019 | 0.549 ± 0.021 | 0.512 ± 0.031 | 0.44 ± 0.025
0.1 µM, coculture fibroblast: HUF | 0.8245 ± 0.0061 | 0.7157 ± 0.00087 | 0.6552 ± 0.003 | 0.57426 ± 1.4e-05 | 0.5241 ± 0.0033 | 0.4859 ± 0.002 | 0.4552 ± 0.0012 | 0.433 ± 0.00097 | 0.42017 ± 0.0001
0.1 µM, coculture fibroblast: Hs5 | 0.842 ± 0.014 | 0.787 ± 0.021 | 0.752 ± 0.033 | 0.699 ± 0.037 | 0.676 ± 0.047 | 0.629 ± 0.05 | 0.627 ± 0.056 | 0.588 ± 0.054 | 0.574 ± 0.062
0.1 µM, coculture fibroblast: Hs27A | 0.7516 ± 0.0029 | 0.681 ± 0.022 | 0.664 ± 0.034 | 0.637 ± 0.049 | 0.603 ± 0.06 | 0.645 ± 0.056 | 0.549 ± 0.053 | 0.522 ± 0.057 | 0.448 ± 0.039
0.1 µM, coculture fibroblast: Hs343T | 0.8076 ± 0.0011 | 0.71462 ± 0.00038 | 0.639 ± 0.013 | 0.59 ± 0.0095 | 0.537 ± 0.019 | 0.495 ± 0.016 | 0.46 ± 0.021 | 0.439 ± 0.019 | 0.418 ± 0.023
0.1 µM, coculture fibroblast: WS1 | 0.8 ± 0.018 | 0.708 ± 0.03 | 0.658 ± 0.019 | 0.578 ± 0.019 | 0.537 ± 0.02 | 0.517 ± 0.03 | 0.491 ± 0.039 | 0.459 ± 0.035 | 0.45 ± 0.034
1 µM, coculture fibroblast: C12385 | 0.7759 ± 0.0021 | 0.7186 ± 0.0015 | 0.7084 ± 0.0062 | 0.638 ± 0.0083 | 0.604 ± 0.011 | 0.584 ± 0.011 | 0.557 ± 0.025 | 0.54 ± 0.024 | 0.528 ± 0.025
1 µM, coculture fibroblast: H6013 | 0.822 ± 0.0052 | 0.821 ± 0.025 | 0.822 ± 0.023 | 0.827 ± 0.04 | 0.836 ± 0.05 | 0.878 ± 0.062 | 0.843 ± 0.074 | 0.825 ± 0.081 | 0.771 ± 0.092
1 µM, coculture fibroblast: H6019 | 0.753 ± 0.024 | 0.727 ± 0.027 | 0.742 ± 0.025 | 0.693 ± 0.02 | 0.672 ± 0.026 | 0.659 ± 0.014 | 0.624 ± 0.0074 | 0.59 ± 0.0099 | 0.5538 ± 0.0019
1 µM, coculture fibroblast: H6076 | 0.774 ± 0.019 | 0.733 ± 0.035 | 0.735 ± 0.041 | 0.687 ± 0.03 | 0.663 ± 0.022 | 0.638 ± 0.019 | 0.642 ± 0.013 | 0.64 ± 0.0084 | 0.622 ± 0.0016
1 µM, coculture fibroblast: H6231 | 0.829 ± 0.03 | 0.771 ± 0.026 | 0.883 ± 0.062 | 0.828 ± 0.071 | 0.834 ± 0.082 | 0.827 ± 0.092 | 0.833 ± 0.097 | 0.832 ± 0.1 | 0.812 ± 0.11
1 µM, coculture fibroblast: HADF | 0.83 ± 0.01 | 0.808 ± 0.058 | 0.799 ± 0.082 | 0.786 ± 0.086 | 0.791 ± 0.1 | 0.835 ± 0.11 | 0.779 ± 0.13 | 0.794 ± 0.14 | 0.755 ± 0.15
1 µM, coculture fibroblast: HCFa | 0.773 ± 0.023 | 0.756 ± 0.026 | 0.739 ± 0.028 | 0.698 ± 0.017 | 0.681 ± 0.021 | 0.697 ± 0.025 | 0.631 ± 0.036 | 0.611 ± 0.036 | 0.551 ± 0.034
1 µM, coculture fibroblast: HCPF | 0.797 ± 0.066 | 0.777 ± 0.028 | 0.783 ± 0.014 | 0.7302 ± 0.0022 | 0.705 ± 0.0083 | 0.675 ± 0.02 | 0.655 ± 0.018 | 0.638 ± 0.027 | 0.605 ± 0.03
1 µM, coculture fibroblast: HHSteC | 0.817 ± 0.047 | 0.823 ± 0.066 | 0.824 ± 0.09 | 0.79 ± 0.098 | 0.784 ± 0.11 | 0.791 ± 0.12 | 0.72 ± 0.11 | 0.696 ± 0.12 | 0.629 ± 0.12
1 µM, coculture fibroblast: HMF | 0.799 ± 0.045 | 0.723 ± 0.013 | 0.711 ± 0.0027 | 0.6616 ± 0.0045 | 0.629 ± 0.0068 | 0.5852 ± 0.0014 | 0.5714 ± 0.0022 | 0.5556 ± 0.0037 | 0.5338 ± 0.0032
1 µM, coculture fibroblast: HPFa | 0.8593 ± 0.004 | 0.813 ± 0.015 | 0.791 ± 0.013 | 0.749 ± 0.015 | 0.729 ± 0.016 | 0.737 ± 0.018 | 0.632 ± 0.021 | 0.593 ± 0.017 | 0.504 ± 0.0075
1 µM, coculture fibroblast: HUF | 0.8479 ± 0.0082 | 0.7622 ± 0.0043 | 0.7513 ± 0.006 | 0.684 ± 0.011 | 0.6394 ± 0.0059 | 0.622 ± 0.0075 | 0.5926 ± 0.0053 | 0.573 ± 0.01 | 0.555 ± 0.015
1 µM, coculture fibroblast: Hs5 | 0.806 ± 0.015 | 0.779 ± 0.012 | 0.774 ± 0.02 | 0.721 ± 0.018 | 0.701 ± 0.01 | 0.655 ± 0.011 | 0.653 ± 0.012 | 0.624 ± 0.0091 | 0.589 ± 0.0092
1 µM, coculture fibroblast: Hs27A | 0.819 ± 0.025 | 0.76 ± 0.035 | 0.76 ± 0.029 | 0.743 ± 0.029 | 0.717 ± 0.024 | 0.778 ± 0.029 | 0.669 ± 0.021 | 0.654 ± 0.021 | 0.569 ± 0.021
1 µM, coculture fibroblast: Hs343T | 0.783 ± 0.035 | 0.693 ± 0.044 | 0.678 ± 0.041 | 0.63 ± 0.036 | 0.61 ± 0.032 | 0.574 ± 0.029 | 0.554 ± 0.03 | 0.534 ± 0.032 | 0.52 ± 0.032
1 µM, coculture fibroblast: WS1 | 0.7398 ± 0.0013 | 0.713 ± 0.015 | 0.705 ± 0.0055 | 0.6303 ± 0.0055 | 0.595 ± 0.018 | 0.57 ± 0.02 | 0.549 ± 0.035 | 0.531 ± 0.04 | 0.523 ± 0.047
